No constants are given. Whether binding was seen depends on the method and setting.
Target: T1, AkrA (full-length cDNA in pGBKT7) (A. nidulans) (UniProt Q5B0V6)
T1 sequence: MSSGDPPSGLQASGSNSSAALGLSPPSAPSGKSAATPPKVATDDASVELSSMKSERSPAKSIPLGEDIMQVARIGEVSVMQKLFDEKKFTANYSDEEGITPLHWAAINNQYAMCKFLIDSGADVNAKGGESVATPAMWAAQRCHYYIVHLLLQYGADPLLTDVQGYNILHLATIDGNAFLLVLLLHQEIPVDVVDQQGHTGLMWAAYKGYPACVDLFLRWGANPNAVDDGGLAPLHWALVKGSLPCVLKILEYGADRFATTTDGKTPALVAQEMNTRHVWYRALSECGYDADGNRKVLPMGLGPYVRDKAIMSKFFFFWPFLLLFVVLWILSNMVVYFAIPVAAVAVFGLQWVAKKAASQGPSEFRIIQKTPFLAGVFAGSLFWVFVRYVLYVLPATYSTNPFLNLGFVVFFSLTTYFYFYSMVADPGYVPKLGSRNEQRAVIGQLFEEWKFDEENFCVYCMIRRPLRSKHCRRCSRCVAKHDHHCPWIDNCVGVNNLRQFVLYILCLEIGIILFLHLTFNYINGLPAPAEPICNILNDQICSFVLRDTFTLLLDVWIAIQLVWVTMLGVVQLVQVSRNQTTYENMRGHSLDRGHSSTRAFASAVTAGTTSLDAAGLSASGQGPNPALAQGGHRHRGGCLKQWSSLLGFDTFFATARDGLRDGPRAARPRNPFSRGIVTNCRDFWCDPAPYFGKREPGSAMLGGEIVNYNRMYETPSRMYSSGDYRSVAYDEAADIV
Experiment: two-hybrid; S. cerevisiae AH109, Matchmaker system; AkrA on GAL4 DNA-BD (pGBKT7), partners on GAL4 AD (pGADT7); growth on high-stringency medium SD/-Ade/-His/-Leu/-Trp

binding: no binding
Substance: MidA (full-length cDNA in pGADT7) (A. nidulans)

Source: publication PMC4825924
